PubChem BioAssay AID1053208 | Peter MacCallum Cancer Centre, 2014
Test: 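Genes whose silencing cuts survival of bone tumour cells only with doxorubicin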 (primary screen). Cell system: mouse osteosarcoma cells, early-passage culture from an engineered mouse model of fibroblastic bone tumour. Reagent: siRNA pool against mouse genes, 40 nM. Timing: about 120 h (48 h before drug, then 72 h with drug). Treatment: doxorubicin 100 nM for 72 h, roughly 30-40% inhibitory dose. Measured: 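Viability read as ATP luminescence after 72 h of 100 nM doxorubicin or none, duplicate wells averaged, scaled to non-targeting siRNA, then expressed as robust z-scores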. Direction: viability z-score with doxorubicin: higher = more viable cells under doxorubicin; viability z-score without drug: higher = more viable cells with knock-down alone. Hit rule: 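a pool counts as active when its viability z-score with doxorubicin is -2 or below and its z-score without drug lies between -2 and 2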.
This is one part, drawn at random, of about 17,000 reagents tested. Of all reagents, 788 (4.7%) were called active. 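Calls rest on z-score classes alone; an extra cut-off of viability at most 70% of control was not applied to them.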 Unmarked entries are inactive. Further read-outs or replicates are left out here. No sequences are given here.

After knock-down of Or5p58 [SID152296532], the record shows combined z-score class no change with or without drug; viability z-score with doxorubicin -1.46; viability z-score without drug 0. Silencing of Vangl1 [SID152319332] resulted in: combined z-score class no change with or without drug; viability z-score with doxorubicin -0.9; viability z-score without drug 0.51. Pcdh1 [SID152334333] showed combined z-score class no change with or without drug; viability z-score with doxorubicin -0.34; viability z-score without drug -0.51. After knock-down of Ppp1r3c [SID152303218] the results were combined z-score class no change with or without drug; viability z-score with doxorubicin 0.34; viability z-score without drug 0.84. Silencing of Slc1a5 [SID152266037] came out at: combined z-score class no change with or without drug; viability z-score with doxorubicin 0.9; viability z-score without drug 0.51. Knock-down of Or1q1 [SID152302185] gave: combined z-score class no change with or without drug; viability z-score with doxorubicin -0.9; viability z-score without drug -0.84.

Sult1a1 [SID152318521] showed combined z-score class no change with or without drug; viability z-score with doxorubicin 1.35; viability z-score without drug 1.01. Tspan8 [SID152299808] gave combined z-score class no change with or without drug; viability z-score with doxorubicin 1.35; viability z-score without drug 1.01. With knock-down of Ptgdr [SID152275922], the screen gave combined z-score class no change with or without drug; viability z-score with doxorubicin 1.8; viability z-score without drug 1.35. Depletion of Rdh14 [SID152269062] gave: combined z-score class no change with or without drug; viability z-score with doxorubicin 0.67; viability z-score without drug 0.84. Depletion of Ppp2r1a [SID152340150] resulted in: combined z-score class no change with or without drug; viability z-score with doxorubicin 0.9; viability z-score without drug -0.34. Usp4 [SID152289948] gave combined z-score class low cell count with doxorubicin only (active); viability z-score with doxorubicin -2.7; viability z-score without drug -0.51.

Knock-down of Pih1d2 [SID152289669] gave: combined z-score class no change with or without drug; viability z-score with doxorubicin 0.9; viability z-score without drug 1.18. With knock-down of Parp4 [SID152322219], the screen gave combined z-score class no change with or without drug; viability z-score with doxorubicin 1.12; viability z-score without drug 1.18. After knock-down of Gars1 [SID152323941], the screen gave combined z-score class no change with or without drug; viability z-score with doxorubicin 0; viability z-score without drug -1.18. Bclaf1 [SID152274188] gave combined z-score class no change with or without drug; viability z-score with doxorubicin 1.01; viability z-score without drug -0.84. Silencing of Zbtb44 [SID152287892] gave: combined z-score class no change with or without drug; viability z-score with doxorubicin 0.34; viability z-score without drug -0.34. Knock-down of Zbtb44 [SID152322454] came out at: combined z-score class no change with or without drug; viability z-score with doxorubicin 0.67; viability z-score without drug 0.51.

Agpat3 [SID152295485] showed combined z-score class no change with or without drug; viability z-score with doxorubicin -1.12; viability z-score without drug -1.85. Depletion of Slc27a1 [SID152281659] came out at: combined z-score class no change with or without drug; viability z-score with doxorubicin 0; viability z-score without drug 1.35. Knock-down of Adarb1 [SID152269064] came out at: combined z-score class no change with or without drug; viability z-score with doxorubicin 1.01; viability z-score without drug 1.18. With knock-down of Orai3 [SID152266704], the record shows combined z-score class no change with or without drug; viability z-score with doxorubicin -0.22; viability z-score without drug 0.51. Knock-down of Mtif3 [SID152269844] gave: combined z-score class no change with or without drug; viability z-score with doxorubicin 0.45; viability z-score without drug 1.18. After knock-down of Edc4 [SID152316712] the results were combined z-score class no change with or without drug; viability z-score with doxorubicin 0.11; viability z-score without drug -0.17.

For Grm8 [SID152327788] the deposit lists combined z-score class high cell count with doxorubicin only; viability z-score with doxorubicin 2.47; viability z-score without drug -0.34. Against Golt1a [SID152292524], the values are combined z-score class no change with or without drug; viability z-score with doxorubicin 0.22; viability z-score without drug -0.34. Knock-down of Adam10 [SID152276446] gave: combined z-score class low cell count with doxorubicin only (active); viability z-score with doxorubicin -2.25; viability z-score without drug 0.17. Against Dock5 [SID152317808] the deposit lists combined z-score class no change with or without drug; viability z-score with doxorubicin -0.67; viability z-score without drug 1.01.

Ordered by “viability z-score with doxorubicin” (highest first): some entries from above
Ptgdr [SID152275922] → combined z-score class: no change with or without drug; viability z-score with doxorubicin: 1.8; viability z-score without drug: 1.35
Sult1a1 [SID152318521] → combined z-score class: no change with or without drug; viability z-score with doxorubicin: 1.35; viability z-score without drug: 1.01
Tspan8 [SID152299808] → combined z-score class: no change with or without drug; viability z-score with doxorubicin: 1.35; viability z-score without drug: 1.01
Or1q1 [SID152302185] → combined z-score class: no change with or without drug; viability z-score with doxorubicin: -0.9; viability z-score without drug: -0.84
